## Results of single-concentration screens

Data taken from ChEMBL document CHEMBL3988442, “University of Dundee, Small-Polar-MMV Screening Library” (2021).

The filed quantity is “Percent Effect” (%). How 0% and 100% were set is not recorded. Most values in the screen are low, and negative values occur. This is an unselected part of the compounds tested.

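Whole-parasite assay of Trypanosoma brucei over 72 hours; the read-out is not stated. Compounds at 10 µM. Higher reads as stronger inhibition (inferred: compounds with an IC50 in retests scored well above the rest). Values scatter widely below zero; nearly all retest evidence comes from the higher of the two concentrations used. Size under these conditions: about 2,700 compounds, about 14 of them at 50% or above in at least one test.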

structure,percent effect
CC(NC(=O)NCCCn1cncn1)c1ccc2c(c1)CC(=O)N2 (stereo unspecified),-33.52
Cc1cnn(CC2CN(Cc3nc4cccnc4[nH]3)CCO2)c1 (stereo unspecified),-79.11
Cc1nn(C)c(C)c1C1CCCN1Cc1ccc(C(N)=O)cc1 (stereo unspecified),-2.546
Cc1cc(OCC(=O)N2CCCC2c2noc(C)n2)no1 (stereo unspecified),-19.98
Cc1nc(CN2CCCC2c2noc(C3CC3)n2)nc2ccccc12 (stereo unspecified),-33.84
CCN1CCOC(CNCc2ccccc2OCc2ccncc2)C1 (stereo unspecified),-59.86
CN(C)c1cc(CNC(=O)Nc2nccs2)ccn1,-34.07
CCc1ncc2c(n1)CN(CC(=O)Nc1nncs1)CC2,-44.01
CCOc1ncccc1C(=O)N(C)C1CCN(c2ccccn2)CC1,-83.98
CN(C)c1cc(CNC(=O)Nc2nncs2)ccn1,-35.86
COCc1ccccc1CNC(=O)CN1CCCC1c1noc(C)n1 (stereo unspecified),-52.24
Cc1nc(-c2ccc(Cl)s2)sc1C(=O)NCCCC(N)=O,-44.95
Cc1ccc(-c2nc(CN3CCCCC3Cn3cncn3)no2)cc1 (stereo unspecified),-9.996
Cc1nc(CN2CCCN(c3nccs3)CC2)no1,-45.73
CCc1ccsc1C(=O)N1CCN(CC(C)(C)O)CC1,-22.42
O=C(CCc1cc(F)ccc1F)NS(=O)(=O)c1ccc2c(c1)OCCO2,-31.53
O=C(NCc1ccncc1)Nc1cc(C(F)(F)F)c[nH]c1=O,-71.21
O=C(Cc1csc(-c2ccco2)n1)N1CCCC1Cn1cccn1 (stereo unspecified),-6.569
Cc1cnn(CCNCC(O)COc2ccc3ccccc3c2)c1 (stereo unspecified),2.795
Cc1ccc(CC(=O)N2CCCC(n3nc(C)cc3C)C2)cn1 (stereo unspecified),-3.512
NC(=O)c1cc(C2CCCN(C(=O)CCc3ccncc3)C2)n[nH]1 (stereo unspecified),-39.48
CC(C)N(Cc1cccc(Cl)c1)Cc1nc2c(cnn2C)c(=O)[nH]1,-21.39
Cc1cnn(CC2CCCN2C(=O)Cc2cccs2)c1 (stereo unspecified),-8.323
CN(C)c1ncccc1CNS(=O)(=O)c1ccc(F)cc1F,-46.33
CCc1n[nH]c(C2CN(C(=O)c3cnc(C)cn3)CCO2)n1 (stereo unspecified),-10.87
NC(=O)c1cccc(CN2CCc3c(ncn3C3CC3)C2)c1,-37.47
Cc1noc(C)c1C(=O)N1CCCN(Cc2cscn2)CC1,-67.26
O=C(COC1CCCC1)Nc1ncn(CC(=O)N2CCCCCC2)n1,-37.92
COc1c(C2CCCN2Cc2noc(C(C)C)n2)c(C)nn1C (stereo unspecified),-30.78
Cc1oc(C)c(C(=O)N2CCN(Cc3cscn3)CC2)c1C,-32.63
COCc1ccc(C(=O)NCCCNc2ccc(C(F)(F)F)cn2)cc1,-42.82
CC(NC(=O)N(C)CCOc1ccccc1F)c1nncn1C (stereo unspecified),-3.026
Cc1cccc(NC(=O)N2CCN(Cc3noc(C4CC4)n3)CC2)c1,-26.05
O=C(NCCCn1cccn1)NCC(c1ccco1)N1CCCC1 (stereo unspecified),-47.64
Cc1cc(C(=O)N2CCCC(C)C2)ccc1NCC(=O)N1CCOCC1 (stereo unspecified),-35.48
Cc1ccc(OCC(=O)NC2CCN(S(C)(=O)=O)CC2)cc1,-28.98
Cc1cc(C(=O)N2CCCC2)ccc1NCC(=O)N1CCCCC1C (stereo unspecified),-38.71
Cc1nc(C2CCCN(C(=O)c3ccoc3)C2)no1 (stereo unspecified),-58
Cc1cc(C)n(C2CCCN(C(=O)Cc3ccc(C#N)cc3)C2)n1 (stereo unspecified),-72.4
Cc1nnc2ccc(N3CCN(CCc4ccccn4)CC3)nn12,-47.94
CC(NC(=O)NCc1cccs1)c1ccc2c(c1)CCC(=O)N2 (stereo unspecified),-43.93
CC(NCc1nnc2n1CCCC2)C(=O)N1CCc2sccc2C1 (stereo unspecified),-45.76

Once more, the final 3:

structure,percent effect
Cc1nnc2ccc(N3CCN(CCc4ccccn4)CC3)nn12,-47.94
CC(NC(=O)NCc1cccs1)c1ccc2c(c1)CCC(=O)N2 (stereo unspecified),-43.93
CC(NCc1nnc2n1CCCC2)C(=O)N1CCc2sccc2C1 (stereo unspecified),-45.76